Data as given in ChEMBL document CHEMBL4316593 (Eur J Med Chem, 2019).
This continues a long series; more values of the same kind are listed elsewhere.

How the values were obtained:
Assay type in all cases: cell-based
Conditions in all cases: U-87MG ATCC
[1] = Inhibition of RTK/PI3K/AKT/mTOR signaling in human U87 cells assessed as down regulation of SPAG1 gene expression at cytotoxic IC50 measured after 48 hrs relative to control
[2] = Inhibition of RTK/PI3K/AKT/mTOR signaling in human U87 cells assessed as down regulation of CDC45 gene expression at cytotoxic IC50 measured after 48 hrs relative to control
[3] = Inhibition of RTK/PI3K/AKT/mTOR signaling in human U87 cells assessed as down regulation of RGMA gene expression at cytotoxic IC50 measured after 48 hrs relative to control
[4] = Inhibition of RTK/PI3K/AKT/mTOR signaling in human U87 cells assessed as down regulation of CDKN2D gene expression at cytotoxic IC50 measured after 48 hrs relative to control
[5] = Inhibition of RTK/PI3K/AKT/mTOR signaling in human U87 cells assessed as down regulation of GINS4 gene expression at cytotoxic IC50 measured after 48 hrs relative to control
[6] = Inhibition of RTK/PI3K/AKT/mTOR signaling in human U87 cells assessed as down regulation of GDE1 gene expression at cytotoxic IC50 measured after 48 hrs relative to control
[7] = Inhibition of RTK/PI3K/AKT/mTOR signaling in human U87 cells assessed as down regulation of HACL1 gene expression at cytotoxic IC50 measured after 48 hrs relative to control
[8] = Inhibition of RTK/PI3K/AKT/mTOR signaling in human U87 cells assessed as down regulation of SPTY2D1 gene expression at cytotoxic IC50 measured after 48 hrs relative to control
[9] = Inhibition of RTK/PI3K/AKT/mTOR signaling in human U87 cells assessed as down regulation of SMG8 gene expression at cytotoxic IC50 measured after 48 hrs relative to control
[10] = Inhibition of RTK/PI3K/AKT/mTOR signaling in human U87 cells assessed as up regulation of CA9 gene expression at cytotoxic IC50 measured after 48 hrs relative to control
[11] = Inhibition of RTK/PI3K/AKT/mTOR signaling in human U87 cells assessed as up regulation of FXYD3 gene expression at cytotoxic IC50 measured after 48 hrs relative to control
[12] = Inhibition of RTK/PI3K/AKT/mTOR signaling in human U87 cells assessed as up regulation of PFKFB4 gene expression at cytotoxic IC50 measured after 48 hrs relative to control
[13] = Inhibition of RTK/PI3K/AKT/mTOR signaling in human U87 cells assessed as up regulation of CCDC102A gene expression at cytotoxic IC50 measured after 48 hrs relative to control
[14] = Inhibition of RTK/PI3K/AKT/mTOR signaling in human U87 cells assessed as up regulation of C10orf10 gene expression at cytotoxic IC50 measured after 48 hrs relative to control
[15] = Inhibition of RTK/PI3K/AKT/mTOR signaling in human U87 cells assessed as up regulation of F2R gene expression at cytotoxic IC50 measured after 48 hrs relative to control
[16] = Inhibition of RTK/PI3K/AKT/mTOR signaling in human U87 cells assessed as up regulation of kringle containing transmembrane protein 2 gene expression at cytotoxic IC50 measured after 48 hrs relative to control
[17] = Inhibition of RTK/PI3K/AKT/mTOR signaling in human U87 cells assessed as up regulation of calcium homeostasis modulator 2 gene expression at cytotoxic IC50 measured after 48 hrs relative to control
[18] = Inhibition of RTK/PI3K/AKT/mTOR signaling in human U87 cells assessed as up regulation of TraB domain containing gene expression at cytotoxic IC50 measured after 48 hrs relative to control
[19] = Inhibition of RTK/PI3K/AKT/mTOR signaling in human U87 cells assessed as up regulation of serpin family E member 2 gene expression at cytotoxic IC50 measured after 48 hrs relative to control
[20] = Inhibition of RTK/PI3K/AKT/mTOR signaling in human U87 cells assessed as up regulation of centrosomal protein 250 gene expression at cytotoxic IC50 measured after 48 hrs relative to control
[21] = Inhibition of RTK/PI3K/AKT/mTOR signaling in human U87 cells assessed as up regulation of solute carrier family 20 member 1 gene expression at cytotoxic IC50 measured after 48 hrs relative to control
[22] = Inhibition of RTK/PI3K/AKT/mTOR signaling in human U87 cells assessed as up regulation of tumor protein D52 gene expression at cytotoxic IC50 measured after 48 hrs relative to control
[23] = Inhibition of RTK/PI3K/AKT/mTOR signaling in human U87 cells assessed as up regulation of thioredoxin like 4A gene expression at cytotoxic IC50 measured after 48 hrs relative to control
[24] = Inhibition of RTK/PI3K/AKT/mTOR signaling in human U87 cells assessed as up regulation of septin 3 gene expression at cytotoxic IC50 measured after 48 hrs relative to control
[25] = Inhibition of RTK/PI3K/AKT/mTOR signaling in human U87 cells assessed as up regulation of SPOP gene expression at cytotoxic IC50 measured after 48 hrs relative to control
[26] = Inhibition of RTK/PI3K/AKT/mTOR signaling in human U87 cells assessed as up regulation of TMEM132A gene expression at cytotoxic IC50 measured after 48 hrs relative to control
[27] = Inhibition of RTK/PI3K/AKT/mTOR signaling in human U87 cells assessed as up regulation of SPINT2 gene expression at cytotoxic IC50 measured after 48 hrs relative to control
[28] = Inhibition of RTK/PI3K/AKT/mTOR signaling in human U87 cells assessed as up regulation of DIDO1 gene expression at cytotoxic IC50 measured after 48 hrs relative to control
[29] = Inhibition of RTK/PI3K/AKT/mTOR signaling in human U87 cells assessed as up regulation of SLMAP gene expression at cytotoxic IC50 measured after 48 hrs relative to control
[30] = Inhibition of RTK/PI3K/AKT/mTOR signaling in human U87 cells assessed as up regulation of HPCAL1 gene expression at cytotoxic IC50 measured after 48 hrs relative to control
[31] = Inhibition of RTK/PI3K/AKT/mTOR signaling in human U87 cells assessed as up regulation of RPS24 gene expression at cytotoxic IC50 measured after 48 hrs relative to control
[32] = Inhibition of RTK/PI3K/AKT/mTOR signaling in human U87 cells assessed as up regulation of UBE2Z gene expression at cytotoxic IC50 measured after 48 hrs relative to control

SMILES: CC(=O)C(=NNc1ccccc1C#N)C(C)=O
- log2FC [1]: -3.17
- log2FC [2]: -1.73
- log2FC [3]: -1.49
- log2FC [4]: -1.28
- log2FC [5]: -1.21
- log2FC [6]: -0.99
- log2FC [7]: -0.879
- log2FC [8]: -0.831
- log2FC [9]: -0.608
- log2FC [10]: 4.1
- log2FC [11]: 2.8
- log2FC [12]: 2.75
- log2FC [13]: 2.12
- log2FC [14]: 1.83
- log2FC [15]: 1.78
- log2FC [16]: 1.53
- log2FC [17]: 1.51
- log2FC [18]: 1.16
- log2FC [19]: 1.09
- log2FC [20]: 0.943
- log2FC [21]: 0.875
- log2FC [22]: 0.801
- log2FC [23]: 0.724
- log2FC [24]: 0.722
- log2FC [25]: 0.642
- log2FC [26]: 0.604
- log2FC [27]: 0.604
- log2FC [28]: 0.562
- log2FC [29]: 0.521
- log2FC [30]: 0.514
- log2FC [31]: 0.334
- log2FC [32]: 0.325
